Reference: PubChem BioAssay AID686938 (Drosophila RNAi Screening Center, 2013)

- Test: 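Looking for CRAC channel components and the factors controlling them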 (primary screen)
- System: Drosophila S2R+ cells
- Reagent: long dsRNA against Drosophila genes, about 0.25 µg dsRNA per well, roughly 10,000 cells
- Timing: 5 days of knock-down before the calcium assay
- Conditions: thapsigargin (SERCA pump blocker) to empty calcium stores; entry signal taken 4 min after adding it
- Detection: 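Duplicate raw fluo-4 intensities per well from a plate reader, at rest and four minutes after thapsigargin emptied calcium stores; entry-to-rest ratio filled for only some wells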
- Reading the numbers: calcium entry signal: higher = stronger calcium signal after store depletion; entry to resting ratio: higher = more calcium entry relative to resting level; resting calcium signal: higher = higher resting calcium signal
- Units: calcium entry signal in fluorescence units; resting calcium signal in fluorescence units
- Hit rule: 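Hit if the duplicate-averaged plate z-score for entry over resting signal is under −3; wells with weak total dye signal (Fmax z < −2) or more than 5 off-targets removed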
- Calls: active = strongly reduced calcium entry; inactive = no strong reduction
The screen tested about 23,000 reagents; shown is a random part of those with a known target gene and a result. Of all reagents, 75 (0.33%) were called active. 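Raw plate signals without normalisation; calls rest on plate z-scores that were not deposited; ratio present for only 364 wells.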 Names joined by + are all predicted targets of the reagent. Not stated in the record: the dose of the treatment.

{"gene":"Ptp4E","dsRNA":"DRSC18701","calcium entry signal, replicate 1":2.78e7,"calcium entry signal, replicate 2":2.34e7,"resting calcium signal, replicate 1":1.19e7,"resting calcium signal, replicate 2":1.09e7,"call":"inactive"}
{"gene":"GstD10","dsRNA":"DRSC15346","calcium entry signal, replicate 1":3.15e7,"calcium entry signal, replicate 2":2.93e7,"resting calcium signal, replicate 1":1.64e7,"resting calcium signal, replicate 2":1.62e7,"call":"inactive"}
{"gene":"CG6271","dsRNA":"DRSC16006","calcium entry signal, replicate 1":3.14e7,"calcium entry signal, replicate 2":3.68e7,"resting calcium signal, replicate 1":1.45e7,"resting calcium signal, replicate 2":1.70e7,"call":"inactive"}
{"gene":"pncr003:2L (retired record)","dsRNA":"DRSC22149","calcium entry signal, replicate 1":3.22e7,"calcium entry signal, replicate 2":6.87e7,"resting calcium signal, replicate 1":1.46e7,"resting calcium signal, replicate 2":2.80e7,"call":"inactive"}
{"gene":"CG15431","dsRNA":"DRSC00446","calcium entry signal, replicate 1":2.94e7,"calcium entry signal, replicate 2":2.23e7,"resting calcium signal, replicate 1":1.44e7,"resting calcium signal, replicate 2":1.05e7,"call":"inactive"}
{"gene":"GstO2","dsRNA":"DRSC10691","calcium entry signal, replicate 1":3.65e7,"calcium entry signal, replicate 2":3.04e7,"resting calcium signal, replicate 1":2.29e7,"resting calcium signal, replicate 2":1.31e7,"call":"inactive"}
{"gene":"CG3376","dsRNA":"DRSC04362","calcium entry signal, replicate 1":3.90e7,"resting calcium signal, replicate 1":1.97e7,"call":"inactive"}
{"gene":"CG13310","dsRNA":"DRSC09981","calcium entry signal, replicate 1":2.98e7,"calcium entry signal, replicate 2":4.04e7,"resting calcium signal, replicate 1":1.41e7,"resting calcium signal, replicate 2":1.56e7,"call":"inactive"}
{"gene":"RpS4","dsRNA":"DRSC11272","calcium entry signal, replicate 1":1.16e7,"calcium entry signal, replicate 2":9.50e6,"resting calcium signal, replicate 1":8.67e6,"resting calcium signal, replicate 2":8.18e6,"call":"inactive"}
{"gene":"Srpk79D","dsRNA":"DRSC11668","calcium entry signal, replicate 1":3.05e7,"calcium entry signal, replicate 2":4.24e7,"resting calcium signal, replicate 1":1.52e7,"resting calcium signal, replicate 2":2.78e7,"call":"inactive"}
{"gene":"Srpk79D","dsRNA":"DRSC11856","calcium entry signal, replicate 1":2.77e7,"calcium entry signal, replicate 2":4.94e7,"resting calcium signal, replicate 1":1.47e7,"resting calcium signal, replicate 2":2.13e7,"call":"inactive"}
{"gene":"stumps","dsRNA":"DRSC13045","calcium entry signal, replicate 1":2.81e7,"calcium entry signal, replicate 2":3.65e7,"resting calcium signal, replicate 1":1.42e7,"resting calcium signal, replicate 2":1.66e7,"call":"inactive"}
{"gene":"stumps","dsRNA":"DRSC15332","calcium entry signal, replicate 1":3.03e7,"calcium entry signal, replicate 2":5.76e7,"resting calcium signal, replicate 1":1.50e7,"resting calcium signal, replicate 2":6.42e7,"call":"inactive"}
{"gene":"stumps","dsRNA":"DRSC17073","calcium entry signal, replicate 1":2.71e7,"calcium entry signal, replicate 2":4.67e7,"resting calcium signal, replicate 1":1.30e7,"resting calcium signal, replicate 2":1.99e7,"call":"inactive"}
{"gene":"Cys","dsRNA":"DRSC16637","calcium entry signal, replicate 1":3.01e7,"calcium entry signal, replicate 2":5.57e7,"resting calcium signal, replicate 1":1.48e7,"resting calcium signal, replicate 2":6.85e7,"call":"inactive"}
{"gene":"CG13481","dsRNA":"DRSC10023","calcium entry signal, replicate 1":3.61e7,"calcium entry signal, replicate 2":4.33e7,"resting calcium signal, replicate 1":1.69e7,"resting calcium signal, replicate 2":1.92e7,"call":"inactive"}
{"gene":"CG14882","dsRNA":"DRSC15006","calcium entry signal, replicate 1":3.26e7,"calcium entry signal, replicate 2":2.62e7,"resting calcium signal, replicate 1":1.57e7,"resting calcium signal, replicate 2":1.28e7,"call":"inactive"}
{"gene":"CG42507 + Trl","dsRNA":"DRSC09325","calcium entry signal, replicate 1":4.63e7,"calcium entry signal, replicate 2":3.90e7,"resting calcium signal, replicate 1":2.02e7,"resting calcium signal, replicate 2":1.85e7,"call":"inactive"}
{"gene":"CG42507 + Trl","dsRNA":"DRSC11308","calcium entry signal, replicate 1":2.57e7,"calcium entry signal, replicate 2":1.95e7,"resting calcium signal, replicate 1":2.14e7,"resting calcium signal, replicate 2":1.24e7,"call":"inactive"}
{"gene":"lncRNA:CR33218","dsRNA":"DRSC22944","calcium entry signal, replicate 1":4.56e7,"calcium entry signal, replicate 2":3.79e7,"resting calcium signal, replicate 1":2.06e7,"resting calcium signal, replicate 2":1.58e7,"call":"inactive"}
{"gene":"CG10194","dsRNA":"DRSC02025","calcium entry signal, replicate 1":3.71e7,"resting calcium signal, replicate 1":2.04e7,"call":"inactive"}
{"gene":"CG31093","dsRNA":"DRSC15689","calcium entry signal, replicate 1":4.28e7,"calcium entry signal, replicate 2":5.50e7,"resting calcium signal, replicate 1":2.00e7,"resting calcium signal, replicate 2":2.46e7,"call":"inactive"}
{"gene":"RpS28b","dsRNA":"DRSC18258","calcium entry signal, replicate 1":1.25e7,"calcium entry signal, replicate 2":1.54e7,"resting calcium signal, replicate 1":8.74e6,"resting calcium signal, replicate 2":1.00e7,"call":"inactive"}
{"gene":"Tim13","dsRNA":"DRSC09848","calcium entry signal, replicate 1":2.27e7,"calcium entry signal, replicate 2":3.44e7,"resting calcium signal, replicate 1":1.14e7,"resting calcium signal, replicate 2":1.60e7,"call":"inactive"}
{"gene":"JhI-26","dsRNA":"DRSC06851","calcium entry signal, replicate 1":3.62e7,"calcium entry signal, replicate 2":3.29e7,"resting calcium signal, replicate 1":1.70e7,"resting calcium signal, replicate 2":1.66e7,"call":"inactive"}
{"gene":"mGluR","dsRNA":"DRSC17215","calcium entry signal, replicate 1":3.57e7,"calcium entry signal, replicate 2":4.92e7,"entry to resting ratio":2,"resting calcium signal, replicate 1":1.83e7,"resting calcium signal, replicate 2":2.06e7,"call":"inactive"}
{"gene":"CG8159","dsRNA":"DRSC16392","calcium entry signal, replicate 1":4.82e7,"calcium entry signal, replicate 2":3.30e7,"resting calcium signal, replicate 1":2.29e7,"resting calcium signal, replicate 2":1.52e7,"call":"inactive"}

Copied from the list.
Under “call”, lncRNA:CR33218 [DRSC22944] has inactive
CG8159 [DRSC16392], calcium entry signal, replicate 1: 4.82e7
For “call”, Srpk79D [DRSC11668] reads inactive
